Entries after “also recorded” stand apart in the source; their conditions may differ. At least one compound was matched to its structure with a doubt left.
Columns and labels:
Assay type in all cases: cell-based, rat
Conditions in all cases: 24 hours treatment
Trk = assay: Immunoblot for phosphoTrk in spinal cord cultures
Method: (§1) Cells were lysed in 1% NP-40 lysis buffers containing protease inhibitors, subjected to SDS-PAGE and immunoblotted as previously described (Fryer et al., 1999; Fryer et al., 2000). For immunoprecipitation, lysates from 60 mm dishes were pre-cleared by incubation with protein A beads (Santa Cruz), incubated with primary antibody (4 μg/ml)×2 hours then 50 μL of beads added and incubated overnight with gentle agitation at 4° C. Beads were pelleted, washed 5× with 10 mM Tris pH 7.4+0.5 mM EGTA+0.5 mM EDTA+0.1% NP40 before elution in 1× Laemelli sample buffer. Antibody sources: BD Transduction Labs—TrkB and MAP Kinase used at 1:500, Cell Signaling—Akt 1:1000; phosphoTrk (tyr490) 1:1000; phospho p42/44 MAP Kinase (thr 202/tyr204) 1:1000; phosphoAkt (ser473) 1:500; IGFI antibody (tyr 1131) 1:500. Upstate—adenosine A2a 1:1000. Sigma—actin 1:200. Biosource—active src (clone 28) 1:200.
(§2) We next asked about the effect of the adenosine A2 receptor antagonism on Trk signaling. […]
(§3) We followed up these observations by determining the effect of enprofylline on Trk signaling and determined the extent to which the resultant biochemical changes mimic the effects of direct pharmacological Trk antagonism with CEP4416. […]

MAP kinase = assay: Immunoblot for phosphoMAPK in spinal cord cultures
Method: as §1, §2, §3

src-family kinases (SFK) = assay: Immunoblot for active SFKs (clone 28 antibody) in spinal cord cultures
Method: as §1
The precise mechanism by which G-protein coupled receptors trans-activate receptor tyrosine kinases is complex and to some extent receptor-subtype specific (Luttrell et al., 1999; Downward, 2003; Piiper and Zeuzem, 2004; Waters et al., 2004). […] If this pathway was operative in spinal cord neurons, then antagonism of adenosine A2a receptors might lead to reduced src activation and antagonism of SFKs might be neuro-protective. […]

In the case of `CCn1c(=O)c2c(nc(/C=C/c3ccc(OC)c(OC)c3)n2C)n(CC)c1=O` [KW6002], the “abundance of phosphoTrk” value (Trk) was “decrease in the abundance of phosphoTrk and phosphoMAPK; also recorded: substantial reduction”, the “abundance of phosphoMAPK” value (MAP kinase) was “decrease in the abundance of phosphoTrk and phosphoMAPK; also recorded: substantial reduction” and the “abundance of active SFKs” value (src-family kinases (SFK)) was “reduced; also recorded: caused a reduction in the abundance of active SFKs”.
